Laboratory results: PubChem BioAssay AID493246 (Drosophila RNAi Screening Center, 2011)

Assay: 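Genome-wide search for dsRNAs that reduce cell number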 (primary screen)
Cell system: Drosophila Kc and S2R+ cells
Knock-down reagent: long dsRNA against Drosophila genes
Measured: 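Raw, unnormalised count of remaining cells in each well; per-plate z-scores of cell number underlie the calls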
Direction: Kc cell number and S2R+ cell number: higher = more cells remaining
Rule for the call: 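Active when the per-plate z-score of cell number is 3 or more in the direction of fewer cells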
In all, the deposit lists about 21,000 reagents; shown is a random part of those that have a named target and a result. Of all reagents, 429 (2%) got an active call. 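Values are raw and not normalised between plates; calls rest on per-plate z-scores that were not deposited.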 A number with no mark means an inactive call. Names joined by + are all predicted targets of the reagent. Reagent sequences are not shown. Not stated in the record: the amount of reagent, the time to read-out.

| target gene | DRSC id | Kc cell number, rep 1 | Kc cell number, rep 2 | S2R+ cell number, rep 1 | S2R+ cell number, rep 2 |
| --- | --- | --- | --- | --- | --- |
| MED26 (Mediator complex subunit 26) | DRSC17126 | 1.39e6 | 1.62e6 | 1.04e6 | 1.03e6 |
| MED26 (Mediator complex subunit 26) | DRSC17147 | 1.59e6 | 1.64e6 | 9.40e5 | 1.01e6 |
| MED26 (Mediator complex subunit 26) | DRSC17148 | 5.20e5 | – | 8.18e5 | – |
| CG12877 | DRSC14565 | 1.49e6 | 1.53e6 | 9.75e5 | 1.07e6 |
| sky (skywalker) | DRSC02383 | 1.49e6 | 1.47e6 | 1.06e6 | 1.14e6 |
| sky (skywalker) | DRSC03214 | 1.38e6 | 1.45e6 | 9.87e5 | 1.01e6 |
| sky (skywalker) | DRSC03215 | 1.57e6 | 1.67e6 | 1.26e6 | 3.80e5 |
| SCAR | DRSC03426 | 1.41e6 | 1.50e6 | 1.12e6 | 1.25e6 |
| mus304 (mutagen-sensitive 304) | DRSC11372 | 1.34e6 | 1.40e6 | 1.26e6 | 1.41e6 |
| CG8097 | DRSC20079 | 1.47e6 | 1.49e6 | 1.07e6 | 1.12e6 |
| Mkp3 (Mitogen-activated protein kinase phosphatase 3) | DRSC10084 | 1.65e6 | 1.61e6 | 1.29e6 | 1.38e6 |
| Mkp3 (Mitogen-activated protein kinase phosphatase 3) | DRSC10085 | 1.40e6 | 1.48e6 | 1.09e6 | 1.20e6 |
| GstE10 (Glutathione S transferase E10) | DRSC06671 | 1.57e6 | 1.65e6 | 1.29e6 | 1.39e6 |
| CR16735 (pseudo) | DRSC15144 | 1.68e6 | 2.00e6 | 1.32e6 | 1.51e6 |
| asRNA:CR42743 + CG34162 | DRSC01190 | 1.44e6 | 1.49e6 | 9.55e5 | 1.06e6 |
| gny (garnysstan) | DRSC02810 | 1.31e6 | 1.36e6 | 1.19e6 | 1.31e6 |
| Hacd2 (3-hydroxyacyl-CoA dehydratase 2) | DRSC03181 | 1.71e6 | 1.74e6 | 1.37e6 | 1.59e6 |
| hale (hale-bopp) | DRSC10882 | 1.47e6 | 1.53e6 | 1.38e6 | 1.44e6 |
| stau (staufen) | DRSC07698 | 1.33e6 | 1.38e6 | 1.16e6 | 1.25e6 |
| CG4338 | DRSC15564 | 1.55e6 | 1.64e6 | 1.21e6 | 1.37e6 |
| RabX5 | DRSC08608 | 1.62e6 | 1.54e6 | 1.07e6 | 1.38e6 |
| CG15047 | DRSC19623 | 1.40e6 | 1.31e6 | 1.03e6 | 1.16e6 |
| RpS20 (Ribosomal protein S20) | DRSC16836 | 8.50e5 | 8.64e5 | 7.45e5 | 8.60e5 |
| AdamTS-B (ADAM metallopeptidase with thrombospondin type 1 motif B) | DRSC18346 | 1.68e6 | 1.63e6 | 1.08e6 | 1.15e6 |
| Targ3 (Terminal ADP-ribose protein glycohydrolase 3) | DRSC11471 | 1.53e6 | 1.85e6 | 1.16e6 | 1.35e6 |
| amos (absent MD neurons and olfactory sensilla) | DRSC03484 | 1.65e6 | 1.69e6 | 1.21e6 | 3.07e5 |
| CG16775 | DRSC10225 | 1.43e6 | 1.77e6 | 1.49e6 | 1.55e6 |
| CG7509 | DRSC08596 | 1.45e6 | 1.52e6 | 1.36e6 | 1.31e6 |
| CG8191 + CG12379 | DRSC19451 | 1.71e6 | 1.70e6 | 1.22e6 | 1.32e6 |
| CG11191 | DRSC06056 | 1.50e6 | 1.58e6 | 1.06e6 | 1.10e6 |
| CG4712 | DRSC06882 | 1.56e6 | 1.52e6 | 1.19e6 | 1.24e6 |
| CG12426 | DRSC14516 | 1.44e6 | 1.46e6 | 9.49e5 | 1.07e6 |
| Jheh1 (Juvenile hormone epoxide hydrolase 1) | DRSC06529 | 1.30e6 | 1.39e6 | 1.10e6 | 1.12e6 |
| CycT (Cyclin T) | DRSC11124 | 6.99e5 (active) | 9.86e5 | 6.66e5 | 7.98e5 |
| CG1792 | DRSC15290 | 1.47e6 | 1.49e6 | 1.01e6 | 1.12e6 |
| betaNACtes3 (Nascent-associated complex beta-subunit-like, testis 3) | DRSC20183 | 1.50e6 | 1.50e6 | 1.03e6 | 1.09e6 |
| BORCS7 + CG13430 | DRSC06392 | 1.44e6 | 1.46e6 | 1.30e6 | 1.31e6 |
| BORCS7 + CG13430 | DRSC06707 | 1.59e6 | 1.41e6 | 9.71e5 | 1.24e6 |
| Tep2 (Thioester-containing protein 2) | DRSC02679 | 1.51e6 | 1.65e6 | 1.26e6 | 1.44e6 |
| Tep2 (Thioester-containing protein 2) | DRSC03451 | 1.59e6 | 1.73e6 | 1.17e6 | 1.39e6 |

Active calls, among the entries above:
| target gene | DRSC id | Kc cell number, rep 1 | Kc cell number, rep 2 | S2R+ cell number, rep 1 | S2R+ cell number, rep 2 |
| --- | --- | --- | --- | --- | --- |
| CycT (Cyclin T) | DRSC11124 | 6.99e5 (active) | 9.86e5 | 6.66e5 | 7.98e5 |
